Our source for the binding values is paper PMC10616288.

One experiment deals with C/EBPα-p42. Nature of the experiment: native gel or EMSA; lysates of co-transfected HEK 293 T cells in non-denaturing lysis buffer without SDS; 8% native PAGE, Tris-glycine running buffer pH 8.8; western blot.
For another experiment, the target named is C/EBPα-EGFP. Nature of the experiment: co-IP; HEK 293 T cells co-transfected; lysed with M-PER with protease and phosphatase inhibitors; lysate incubated with antibody-bound magnetic beads at 4 °C overnight; western blot (anti-FLAG, anti-mCherry, anti-GFP). A general note: A western blot detects proteins with antibodies after separation by electrophoresis.

These are yes or no findings as the source states them, for the method shown. Binding can be weak; no strength is given. For some assays here: In cells and extracts the contact can be indirect.

For TQQKVLELTSDNDRLRKRVEQLSRELDTLRGIFRQL (domain or fragment) [mCherry-LZ], the binding entry in the experiment with C/EBPα-p42 and with C/EBPα-EGFP was “binds” in each case.
